Data as given in PubChem BioAssay AID602196 (INSERM, 2012)
Here is an unselected part of about 23,000 reagents tested. 455 of them (2%) count as active. 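Active includes both protection and sensitisation; some change values fall well beyond the stated -50 to +50 range.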 Further read-outs or replicates are left out here. Not given: the amount of reagent.

Aim: 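Genes whose knock-down alters cisplatin killing of lung cancer cells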
Cells: human A549 lung cancer cells
Reagent: siRNA pair against human genes
Duration: 48 h transfection before cisplatin; time from cisplatin to read-out not stated
Conditions: cisplatin at a dose killing half of control-siRNA cells; exact dose and duration not given
Measured: 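Cisplatin cell death as a shift from the 50% death seen with control siRNA; siRNAs toxic or growth-blocking alone scored 0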
Scale: two-siRNA summed score (-2 to +2): higher = both siRNAs protect from cisplatin killing; -2 means both sensitise
Call rule: 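Each siRNA scores 0 if harmful alone by LDH or WST-1, otherwise +1 if it reduces and -1 if it increases cisplatin killing; a gene is active when both siRNAs agree (sum +2 or -2)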
Meaning of the calls: active = both siRNAs shift cisplatin killing the same way; inactive = no consistent shift, or siRNA harmful alone

OR10J1 (olfactory receptor family 10 subfamily J member 1): two-siRNA summed score (-2 to +2) = 0; Call = inactive
ERICH3 (glutamate rich 3): two-siRNA summed score (-2 to +2) = 0; Call = inactive
MAML1 (mastermind like transcriptional coactivator 1): two-siRNA summed score (-2 to +2) = 0; Call = inactive
LOC388922: two-siRNA summed score (-2 to +2) = 0; Call = inactive
MAP1LC3C (microtubule associated protein 1 light chain 3 gamma): two-siRNA summed score (-2 to +2) = -1; Call = inactive
KCNC4 (potassium voltage-gated channel subfamily C member 4): two-siRNA summed score (-2 to +2) = -1; Call = inactive
LOC389753: two-siRNA summed score (-2 to +2) = -1; Call = inactive
IFI44 (interferon induced protein 44): two-siRNA summed score (-2 to +2) = 0; Call = inactive
KERA (keratocan): two-siRNA summed score (-2 to +2) = 0; Call = inactive
GALNT15 (polypeptide N-acetylgalactosaminyltransferase 15): two-siRNA summed score (-2 to +2) = 0; Call = inactive
TBC1D29P (TBC1 domain family member 29, pseudogene): two-siRNA summed score (-2 to +2) = 0; Call = inactive
ZNF133 (zinc finger protein 133): two-siRNA summed score (-2 to +2) = 0; Call = inactive
TNFAIP8 (TNF alpha induced protein 8): two-siRNA summed score (-2 to +2) = 0; Call = inactive
AVPR1B (arginine vasopressin receptor 1B): two-siRNA summed score (-2 to +2) = -1; Call = inactive
ZWILCH (zwilch kinetochore protein): two-siRNA summed score (-2 to +2) = 0; Call = inactive
ZFP1 (ZFP1 zinc finger protein): two-siRNA summed score (-2 to +2) = 0; Call = inactive
LGALS13 (galectin 13): two-siRNA summed score (-2 to +2) = 0; Call = inactive
OGFOD1: two-siRNA summed score (-2 to +2) = 0; Call = inactive
WDR44 (WD repeat domain 44): two-siRNA summed score (-2 to +2) = 0; Call = inactive
MAVS (mitochondrial antiviral signaling protein): two-siRNA summed score (-2 to +2) = 0; Call = inactive
BCCIP (BRCA2 and CDKN1A interacting protein): two-siRNA summed score (-2 to +2) = 0; Call = inactive

In a second layout: 2 of the entries above.
gene,two-siRNA summed score (-2 to +2),Call
OGFOD1,0,inactive
WDR44 (WD repeat domain 44),0,inactive
